According to article PMC12493026:
These are yes or no findings as the source states them, for the method shown. Binding seen in cells or lysates may run through a third protein. These calls come from enrichment with a bait or labelling near it, and not all partners need be listed.

Amino acid sequences for entries named in this document (tags omitted).
UniProt Q8C6M1: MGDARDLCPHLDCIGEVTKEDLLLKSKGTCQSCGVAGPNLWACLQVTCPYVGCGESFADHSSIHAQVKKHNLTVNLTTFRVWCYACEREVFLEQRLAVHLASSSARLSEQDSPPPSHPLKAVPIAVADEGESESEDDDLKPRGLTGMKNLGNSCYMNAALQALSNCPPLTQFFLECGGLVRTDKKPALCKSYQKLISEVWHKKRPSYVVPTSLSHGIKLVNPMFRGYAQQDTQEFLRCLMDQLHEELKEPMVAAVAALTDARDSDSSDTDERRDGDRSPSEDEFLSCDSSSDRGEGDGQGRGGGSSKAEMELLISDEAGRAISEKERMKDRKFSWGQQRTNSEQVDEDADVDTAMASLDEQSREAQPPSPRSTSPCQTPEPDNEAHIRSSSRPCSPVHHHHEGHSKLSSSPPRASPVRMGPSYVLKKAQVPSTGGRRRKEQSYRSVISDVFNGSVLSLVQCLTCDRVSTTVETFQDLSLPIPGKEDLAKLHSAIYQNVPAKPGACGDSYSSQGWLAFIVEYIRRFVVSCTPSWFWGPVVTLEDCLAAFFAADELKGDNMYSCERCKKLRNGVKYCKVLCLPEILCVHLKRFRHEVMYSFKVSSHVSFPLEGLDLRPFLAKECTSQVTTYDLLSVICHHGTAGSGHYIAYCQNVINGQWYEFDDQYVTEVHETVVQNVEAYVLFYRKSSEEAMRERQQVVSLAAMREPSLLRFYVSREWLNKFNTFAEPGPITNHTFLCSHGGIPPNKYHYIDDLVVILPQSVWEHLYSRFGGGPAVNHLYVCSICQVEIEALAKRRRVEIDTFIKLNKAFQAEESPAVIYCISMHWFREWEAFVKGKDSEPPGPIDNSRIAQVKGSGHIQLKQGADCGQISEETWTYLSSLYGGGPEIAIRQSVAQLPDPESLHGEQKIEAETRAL
UniProt D4A523: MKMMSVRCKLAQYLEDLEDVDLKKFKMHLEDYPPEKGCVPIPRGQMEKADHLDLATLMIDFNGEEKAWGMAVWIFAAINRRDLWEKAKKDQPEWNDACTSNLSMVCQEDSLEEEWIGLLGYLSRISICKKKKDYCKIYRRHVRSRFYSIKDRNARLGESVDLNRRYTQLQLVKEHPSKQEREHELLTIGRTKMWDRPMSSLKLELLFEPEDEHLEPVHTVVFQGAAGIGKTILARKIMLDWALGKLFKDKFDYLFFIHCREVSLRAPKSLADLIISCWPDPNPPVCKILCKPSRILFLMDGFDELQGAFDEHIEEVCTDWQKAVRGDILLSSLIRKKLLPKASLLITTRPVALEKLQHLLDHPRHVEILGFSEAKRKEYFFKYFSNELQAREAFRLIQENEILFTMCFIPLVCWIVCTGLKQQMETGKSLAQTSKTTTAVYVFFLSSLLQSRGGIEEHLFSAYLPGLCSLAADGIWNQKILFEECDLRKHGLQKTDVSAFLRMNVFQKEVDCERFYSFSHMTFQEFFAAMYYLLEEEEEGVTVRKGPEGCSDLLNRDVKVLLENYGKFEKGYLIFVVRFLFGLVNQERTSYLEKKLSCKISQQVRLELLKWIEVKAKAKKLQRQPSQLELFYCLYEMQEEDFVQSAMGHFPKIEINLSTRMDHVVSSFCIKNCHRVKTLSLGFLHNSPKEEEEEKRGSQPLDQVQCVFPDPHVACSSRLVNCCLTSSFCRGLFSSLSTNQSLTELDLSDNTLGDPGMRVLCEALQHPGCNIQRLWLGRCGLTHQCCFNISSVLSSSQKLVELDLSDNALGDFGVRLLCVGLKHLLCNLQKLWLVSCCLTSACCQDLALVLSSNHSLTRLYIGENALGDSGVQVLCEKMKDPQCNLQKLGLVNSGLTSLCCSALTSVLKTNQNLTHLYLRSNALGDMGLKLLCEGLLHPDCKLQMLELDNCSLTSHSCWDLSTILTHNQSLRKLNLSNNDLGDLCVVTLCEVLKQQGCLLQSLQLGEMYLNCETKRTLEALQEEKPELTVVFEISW

Biological target: Flag-USP20 expressed in cardiomyocytes (UniProt Q8C6M1)
Experiment: affinity purification with mass spectrometry; cardiomyocytes transfected with Flag-USP20, LPS/Nig treated; anti-Flag antibody and protein G-Sepharose beads; bound proteins analysed by LC-MS/MS

NLRP3, endogenous in cardiomyocytes (LC-MS/MS screen) (from UniProt D4A523 1-1035)
binding: binds
